PubChem BioAssay AID1159601, NIAID | 2016

Purpose: 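Knock-down of 126 canonical TLR pathway genes, testing the TNF response to a TLR2 ligand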 (primary screen)
Cell system: human THP-1 reporter cells differentiated with PMA into macrophage-like cells
Knock-down reagent: single siRNA against human genes
Timing: ligand added 4 hours before read-out; cells assayed 48 to 72 hours after siRNA transfection
Challenge: Pam3CSK4 (TLR2 ligand) for 4 hours; dose not given
Read-out: 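Firefly over renilla luciferase ratio from a TNF promoter reporter after 4 h Pam3CSK4, plate scaled by median and MAD, robust z-score versus negative controls, replicate mean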
Scale: TNF reporter z-score: higher = stronger TNF promoter reporter activity
Rule for the call: 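The depositor grades each siRNA by the size of its mean z-score in either direction, with steps at 1, 1.5, 2 and 2.5; active calls sit near -1.5 or below, or near 1.5 or above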
Calls: active = clear change (up or down); inactive = little change
In all, the deposit lists 756 reagents; below is a random part of them. 143 of them (19%) count as active. 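Calls include both lowered and raised reporter signal; each row is a single siRNA, not a gene summary; Pam3CSK4 dose not stated.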 Reagent sequences are not shown. The record does not give: the amount of reagent.

no.	Target gene	PubChem SID	TNF reporter z-score, replicate mean	outcome
1	TBKBP1	SID303070852	0.92	inactive
2	TBKBP1	SID303070853	0.949	inactive
3	TBKBP1	SID303070854	-0.173	inactive
4	TBKBP1	SID303070855	0.307	inactive
5	TBKBP1	SID303070856	1.07	inactive
6	TBKBP1	SID303070857	-0.266	inactive
7	IRF5	SID303070942	-3.72	active
8	IRF5	SID303070943	-0.741	inactive
9	IRF5	SID303070944	-0.88	inactive
10	IRF5	SID303070945	-0.251	inactive
11	IRF5	SID303070946	-2.15	active
12	IRF5	SID303070947	1.61	active
13	IL12B	SID303071074	-1.3	inactive
14	IL12B	SID303071075	-0.219	inactive
15	IL12B	SID303071076	-1.13	inactive
16	IL12B	SID303071077	-0.676	inactive
17	IL12B	SID303071078	-1.85	active
18	IL12B	SID303071079	-1.13	inactive
19	MAPK9	SID303070762	0.494	inactive
20	MAPK9	SID303070763	-1.29	inactive
21	MAPK9	SID303070764	-0.227	inactive
22	MAPK9	SID303070765	0.655	inactive
23	MAPK9	SID303070766	-1.36	inactive
24	MAPK9	SID303070767	-0.246	inactive
25	RELB	SID303070666	-0.425	inactive
26	RELB	SID303070667	-0.368	inactive
27	RELB	SID303070668	1.11	inactive
28	RELB	SID303070669	-0.268	inactive
29	RELB	SID303070670	-0.37	inactive
30	RELB	SID303070671	-0.188	inactive
31	MAP2K6	SID303070720	-0.321	inactive
32	MAP2K6	SID303070721	0.191	inactive
33	MAP2K6	SID303070722	-0.137	inactive
34	MAP2K6	SID303070723	0.622	inactive
35	MAP2K6	SID303070724	0.237	inactive
36	MAP2K6	SID303070725	0.897	inactive
37	RELA	SID303070660	-2.18	active
38	RELA	SID303070661	-1.38	inactive
39	RELA	SID303070662	-1.15	inactive
40	RELA	SID303070663	-1.7	active
41	RELA	SID303070664	-0.582	inactive
42	RELA	SID303070665	-2.26	active
43	TICAM2	SID303070792	-0.309	inactive
44	TICAM2	SID303070793	0.537	inactive
45	TICAM2	SID303070794	-0.573	inactive
46	TICAM2	SID303070795	0.647	inactive
47	TICAM2	SID303070796	-1.69	active
48	TICAM2	SID303070797	-1.04	inactive
49	NFKB2	SID303070654	-0.000724	inactive
50	NFKB2	SID303070655	-0.425	inactive
51	NFKB2	SID303070656	1.77	active
52	NFKB2	SID303070657	-0.0495	inactive
53	NFKB2	SID303070658	-1.44	inactive
54	NFKB2	SID303070659	0.471	inactive
55	SIGIRR	SID303071128	-0.182	inactive
56	SIGIRR	SID303071129	-0.676	inactive
57	SIGIRR	SID303071130	-0.889	inactive
58	SIGIRR	SID303071131	-0.992	inactive
59	SIGIRR	SID303071132	1.03	inactive
60	SIGIRR	SID303071133	-0.895	inactive
61	ARF6	SID303070522	0.657	inactive
62	ARF6	SID303070523	-0.129	inactive
63	ARF6	SID303070524	0.675	inactive
64	ARF6	SID303070525	-1.51	active
65	ARF6	SID303070526	-0.618	inactive
66	ARF6	SID303070527	0.0172	inactive
67	PIK3CG	SID303070906	-1.13	inactive
68	PIK3CG	SID303070907	-0.426	inactive
69	PIK3CG	SID303070908	-0.731	inactive
70	PIK3CG	SID303070909	-0.346	inactive
71	PIK3CG	SID303070910	0.151	inactive
72	PIK3CG	SID303070911	-1.76	active
73	PIK3R3	SID303070924	0.755	inactive
74	PIK3R3	SID303070925	0.225	inactive
75	PIK3R3	SID303070926	-0.706	inactive
76	PIK3R3	SID303070927	-0.677	inactive
77	PIK3R3	SID303070928	1.57	active
78	PIK3R3	SID303070929	-1.26	inactive

Copied from the entries so far (12 entries):
no.	Target gene	PubChem SID	TNF reporter z-score, replicate mean	outcome
27	RELB	SID303070668	1.11	inactive
28	RELB	SID303070669	-0.268	inactive
29	RELB	SID303070670	-0.37	inactive
30	RELB	SID303070671	-0.188	inactive
31	MAP2K6	SID303070720	-0.321	inactive
32	MAP2K6	SID303070721	0.191	inactive
33	MAP2K6	SID303070722	-0.137	inactive
34	MAP2K6	SID303070723	0.622	inactive
35	MAP2K6	SID303070724	0.237	inactive
36	MAP2K6	SID303070725	0.897	inactive
37	RELA	SID303070660	-2.18	active
38	RELA	SID303070661	-1.38	inactive
